These are yes or no findings as the source states them, for the method shown. Binding seen in cells or lysates may run through a third protein. Some binding calls cover weakened binding; strength is not graded here. Sequences can lack the tags named with a protein.
Legend:
[1] = molecular target: T1, glutathione S-transferase-KlGal1 fusion protein Gst-KlGal1p (Kluyveromyces lactis) (UniProt P09608); assay: pull-down; Fig 6C: 1,500 μg raw extract containing GST-Gal1p immobilized on a GST-column for 1 h 30 min, 20 μg of purified Gal80p added for 1 h 30 min, four washes, elution with 40 mM GSH, Coomassie-stained SDS gel; only the binder purified
T1 sequence: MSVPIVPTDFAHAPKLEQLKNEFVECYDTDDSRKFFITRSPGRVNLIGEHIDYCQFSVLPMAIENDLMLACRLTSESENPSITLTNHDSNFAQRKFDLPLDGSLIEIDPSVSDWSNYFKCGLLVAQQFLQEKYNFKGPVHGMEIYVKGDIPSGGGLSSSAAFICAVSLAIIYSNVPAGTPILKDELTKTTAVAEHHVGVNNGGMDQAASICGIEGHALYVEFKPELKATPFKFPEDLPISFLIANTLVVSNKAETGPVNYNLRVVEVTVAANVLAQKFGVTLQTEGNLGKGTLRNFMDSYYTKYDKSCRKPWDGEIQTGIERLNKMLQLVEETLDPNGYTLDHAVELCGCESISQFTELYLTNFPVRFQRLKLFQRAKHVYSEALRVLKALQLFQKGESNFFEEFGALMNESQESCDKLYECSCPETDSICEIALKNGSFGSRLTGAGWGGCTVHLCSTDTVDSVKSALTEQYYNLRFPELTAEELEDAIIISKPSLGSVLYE

[2] = molecular target: T1, glutathione S-transferase-KlGal1 fusion protein Gst-KlGal1p (Kluyveromyces lactis); assay: pull-down; data not shown: GST pull-down with Gst-KlGal1p as bait, repeated with the other tag form of KlGal80p (untagged or His6-tagged)

Row | Binder | binding [1] | binding [2]
1 | KlGal80p with internal His6-tag (IHKlGal80p) (protein, UniProt Q06433 1-457) MNNNKRSKLSTVPSSRPIRVGFVGLTSGKSWVAKTHFLAIQQLSSQFQIVALYNPTLKSSLQTIEQLQLKHATGFDSLESFAQYKDIDMIVVSVKVPEHYEVVKNILEHSSQNLNLRYLYVEWALAASVQQAEELYSISQQRANLQTIICLQGRKSPYIVRAKELISEGCIGDINSIEISGNGGWYGYERPMRSPEYLYDIESGVNLISNSFGHTIDVLQYITGSYFQKINAMISNNIPTQFLLDENGKRTKETISKTCPDHLLFQGILENGKVPVSCSFKGGTPVKKLTKNLVIDIHGTKGDLKIEGDAGFVEISNLVLYFYGIKNGNGSSNGTDNNGAAAIKDKEKVTKSPSPSTGTSEEEQTMEVFHLRNYNSVVGNILRIYESIADYHFLGKPESKSSRGPDDLFASTKFDKQGFRFEGFPTFKDAIILHRLIDAVFRSDKEEKTLDVSKIMI | binds | 
2 | untagged wild-type KlGal80p (protein, UniProt Q06433 1-457) MNNNKRSKLSTVPSSRPIRVGFVGLTSGKSWVAKTHFLAIQQLSSQFQIVALYNPTLKSSLQTIEQLQLKHATGFDSLESFAQYKDIDMIVVSVKVPEHYEVVKNILEHSSQNLNLRYLYVEWALAASVQQAEELYSISQQRANLQTIICLQGRKSPYIVRAKELISEGCIGDINSIEISGNGGWYGYERPMRSPEYLYDIESGVNLISNSFGHTIDVLQYITGSYFQKINAMISNNIPTQFLLDENGKRTKETISKTCPDHLLFQGILENGKVPVSCSFKGGTPVKKLTKNLVIDIHGTKGDLKIEGDAGFVEISNLVLYFYGIKNGNGSSNGTDNNGAAAIKDKEKVTKSPSPSTGTSEEEQTMEVFHLRNYNSVVGNILRIYESIADYHFLGKPESKSSRGPDDLFASTKFDKQGFRFEGFPTFKDAIILHRLIDAVFRSDKEEKTLDVSKIMI |  | binds

Reference: article PMC7556753, “A double role of the Gal80 N terminus in activation of transcription by Gal4p” (Life Science Alliance, 2020)
